PubChem BioAssay AID504764 – Drosophila RNAi Screening Center, 2011

Screen: 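Genome-wide screen for regulators of Notch-driven gene expression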 (primary screen)
Cells: Drosophila Kc167 cells
Knock-down reagent: long dsRNA against Drosophila genes
Duration: about 5 days (4 days dsRNA, then 24 h after transfection)
Treatment: transfection of constitutively active membrane-tethered Notch lacking the extracellular domain, read 24 h later
Measurement: 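Firefly luciferase from an E(spl)m3 reporter with active Notch, plus control-promoter and uninduced reporter wells for normalisation; unnormalised counts, duplicate wells a and b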
Scale: induced reporter light, run 1, well a and induced reporter light, run 1, well b: higher = more light from the Notch target reporter with active Notch; control promoter light, run 1, well a and control promoter light, run 1, well b: higher = more light from the viral control promoter (cell number, transfection, viability); uninduced reporter light, run 1, well a: higher = more light from the Notch target reporter without active Notch
Hit rule: 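Wells with low control signal or poorly matching duplicates excluded; duplicates averaged; per source plate, z beyond ±2 for induced/control log2 ratio or beyond ±1.8 for induced/uninduced marks a hit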
Meaning of the calls: active = modifier hit (raised or lowered Notch signal); inactive = not a hit
The screen tested about 22,000 reagents; this is a random part of those with a known target gene and a result. Of all reagents, 403 (1.9%) got an active call. 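Unnormalised raw counts per well; ratio z-scores behind the hit calls and whether each hit raises or lowers signal are not deposited.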 Entries without a mark were called inactive. Not stated in the record: the amount of reagent.

Parg [DRSC18696] → induced reporter light, run 1, well a = 1.83e5; induced reporter light, run 1, well b = 1.89e5; control promoter light, run 1, well a = 2.27e5; control promoter light, run 1, well b = 2.39e5; uninduced reporter light, run 1, well a = 11542
Grip163 [DRSC10538] → induced reporter light, run 1, well a = 71500; induced reporter light, run 1, well b = 69885; control promoter light, run 1, well a = 66345; control promoter light, run 1, well b = 67625; uninduced reporter light, run 1, well a = 5635
maca [DRSC15738] → induced reporter light, run 1, well a = 2.08e5; induced reporter light, run 1, well b = 2.19e5; control promoter light, run 1, well a = 2.36e5; control promoter light, run 1, well b = 2.27e5; uninduced reporter light, run 1, well a = 15175
Oseg5 [DRSC03209] → induced reporter light, run 1, well a = 54400; induced reporter light, run 1, well b = 47315; control promoter light, run 1, well a = 49905; control promoter light, run 1, well b = 60085; uninduced reporter light, run 1, well a = 2405
Art2 [DRSC00627] → induced reporter light, run 1, well a = 2.33e5; induced reporter light, run 1, well b = 2.31e5; control promoter light, run 1, well a = 2.75e5; control promoter light, run 1, well b = 2.31e5; uninduced reporter light, run 1, well a = 12405
Paics [DRSC20305] → induced reporter light, run 1, well a = 1.71e5; induced reporter light, run 1, well b = 1.87e5; control promoter light, run 1, well a = 2.19e5; control promoter light, run 1, well b = 2.16e5; uninduced reporter light, run 1, well a = 12845
SmydA-7 [DRSC07340] → induced reporter light, run 1, well a = 92505; induced reporter light, run 1, well b = 1.10e5; control promoter light, run 1, well a = 1.69e5; control promoter light, run 1, well b = 1.98e5; uninduced reporter light, run 1, well a = 8515
CG13970 [DRSC02311] → induced reporter light, run 1, well a = 43590; induced reporter light, run 1, well b = 30270; control promoter light, run 1, well a = 39625; control promoter light, run 1, well b = 40310; uninduced reporter light, run 1, well a = 2935
CG6216 [DRSC10606] → induced reporter light, run 1, well a = 97055; induced reporter light, run 1, well b = 84000; control promoter light, run 1, well a = 1.09e5; control promoter light, run 1, well b = 83215; uninduced reporter light, run 1, well a = 4670
CG2889 [DRSC18236] → induced reporter light, run 1, well a = 1.05e5; induced reporter light, run 1, well b = 1.19e5; control promoter light, run 1, well a = 1.36e5; control promoter light, run 1, well b = 1.58e5; uninduced reporter light, run 1, well a = 7282
l(2)37Cd [DRSC02069] → induced reporter light, run 1, well a = 2.35e5; induced reporter light, run 1, well b = 2.42e5; control promoter light, run 1, well a = 2.04e5; control promoter light, run 1, well b = 2.17e5; uninduced reporter light, run 1, well a = 18288

2 entries from above, arranged by “uninduced reporter light, run 1, well a”, ascending.
CG13970 [DRSC02311] → induced reporter light, run 1, well a = 43590; induced reporter light, run 1, well b = 30270; control promoter light, run 1, well a = 39625; control promoter light, run 1, well b = 40310; uninduced reporter light, run 1, well a = 2935
SmydA-7 [DRSC07340] → induced reporter light, run 1, well a = 92505; induced reporter light, run 1, well b = 1.10e5; control promoter light, run 1, well a = 1.69e5; control promoter light, run 1, well b = 1.98e5; uninduced reporter light, run 1, well a = 8515

Additional reagents:
CG10914 [DRSC06010] → induced reporter light, run 1, well a = 32065; induced reporter light, run 1, well b = 31765; control promoter light, run 1, well a = 35485; control promoter light, run 1, well b = 37155; uninduced reporter light, run 1, well a = 3020
Parp1 [DRSC07725] → induced reporter light, run 1, well a = 90795; induced reporter light, run 1, well b = 89980; control promoter light, run 1, well a = 1.11e5; control promoter light, run 1, well b = 98875; uninduced reporter light, run 1, well a = 7775
Parp1 [DRSC07778] → induced reporter light, run 1, well a = 81595; induced reporter light, run 1, well b = 1.05e5; control promoter light, run 1, well a = 1.63e5; control promoter light, run 1, well b = 1.68e5; uninduced reporter light, run 1, well a = 5595
Parp1 [DRSC07780] → induced reporter light, run 1, well a = 98270; induced reporter light, run 1, well b = 1.31e5; control promoter light, run 1, well a = 1.92e5; control promoter light, run 1, well b = 1.90e5; uninduced reporter light, run 1, well a = 8120
Alg2 [DRSC08298] → induced reporter light, run 1, well a = 1.04e5; induced reporter light, run 1, well b = 1.26e5; control promoter light, run 1, well a = 1.10e5; control promoter light, run 1, well b = 58595; uninduced reporter light, run 1, well a = 15190
Chs2 [DRSC11830] → induced reporter light, run 1, well a = 1.40e5; induced reporter light, run 1, well b = 1.11e5; control promoter light, run 1, well a = 98570; control promoter light, run 1, well b = 71075; uninduced reporter light, run 1, well a = 13335
Mondo [DRSC02667] → induced reporter light, run 1, well a = 1.77e5; induced reporter light, run 1, well b = 1.55e5; control promoter light, run 1, well a = 1.60e5; control promoter light, run 1, well b = 1.93e5; uninduced reporter light, run 1, well a = 10970
Mondo [DRSC02668] → induced reporter light, run 1, well a = 30905; induced reporter light, run 1, well b = 27500; control promoter light, run 1, well a = 38960; control promoter light, run 1, well b = 34690; uninduced reporter light, run 1, well a = 1495
